From PubChem BioAssay AID1347076 (National Center for Advancing Translational Sciences (NCATS), 2019)
About 13,000 (3.2%) of roughly 400,000 compounds were called active. The shares of active, inactive and inconclusive entries below differ from those in the screen. Calls follow the shape of the dose curve; as a rule, active = well fitted cell-killing curve with a large enough effect; inconclusive = small, poorly fitted or top-dose-only effect, or effect the other way; inactive = flat fitted curve, though single readings scatter. Potencies beside an inconclusive call are fits to weak or partial responses and may not hold up.

Experiment: qHTS assay for MDR1-selective chemotherapeutics: Primary screen using the drug-selected MDR subline cells KB-V1; also: nearly all actives have a fitted effect of over 60% in size
Conditions: KB-V1 MDR cells viability, CellTiter-Glo, 72 h; activity change, negative = cytotoxicity: at 46.1 µM (top of the series)
In short: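 Cytotoxicity via CellTiter-Glo luminescence after 72 h compound exposure at 37 degrees C. Cells: drug-selected KB-V1 line, DMEM phenol-red free plus 10% FBS. Compounds tested at multiple concentrations; normalized data fitted to concentration-effect curves.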
% is scaled to controls: 0 for no effect and ±100 for the full control effect; potency is read from the fitted curve at half-maximal effect.

| SMILES | Potency | activity change, negative = cytotoxicity |
| --- | --- | --- |
| CCOC(=O)c1c(-c2ccc(C)cc2)csc1NC(=O)CCN1CCOCC1 | inconclusive: 16.4 µM [cytotoxic, partial curve, poor fit] | – |
| O=C(NCCC1=CCCCC1)C1CCCN(S(=O)(=O)c2cccc3cccnc23)C1 (configuration not stated) | inconclusive: 29.1 µM [cytotoxic, single point] | – |
| CCCCN(C)CCCNC(=O)c1cn(C)c2ccc(S(=O)(=O)N(C)C3CCCCC3)cc2c1=O | – | inactive: 0% |
| CC1(C)CC(=O)C2=C(C1)N1C(=C(C#N)C2c2ccc(Cl)cc2)N=C(N)c2ccccc21 (configuration not stated) | inconclusive: 20.6 µM [cytotoxic, single point] | – |
| Cc1cc2oc(=O)cc(CSc3nc(N)cc(N)n3)c2cc1C | inconclusive: 14.6 µM [cytotoxic, partial curve] | – |
| Cc1nc2c(-c3ccccc3)c(C)nn2c(SCC(N)=O)c1Cc1ccccc1 | inconclusive: 20.6 µM [cytotoxic, single point] | – |
| CCCNC(=O)COC(=O)c1ccccc1OCC(=O)Nc1ccc(Br)cc1 | inconclusive: 7.31 µM [cytotoxic, partial curve] | – |
| Cc1ccc(C(C(=O)NC2CCCCC2)N(C(=O)c2csnn2)C2CCCC2)o1 (configuration not stated) | inconclusive: 3.66 µM [cytotoxic, partial curve] | – |
| C[C@H](CO)N1C[C@H](C)[C@@H](CN(C)C(=O)Nc2ccccc2)Oc2c(NC(=O)Nc3ccc4c(c3)OCO4)cccc2C1=O | inconclusive: 23.1 µM [rising, single point] | – |
| Cc1ccc(C(=O)N/C(=C\c2ccccc2)C(=O)NCc2ccncc2)cc1 | – | inactive: 18.9% |
| Cc1cc(N2CCC(C(=O)Nc3ccc(F)cc3F)CC2)n2nc(C)c(-c3ccc(Cl)cc3)c2n1 | – | inactive: 0% |
| NC(=O)c1ccsc1NC(=O)C1CCN(S(=O)(=O)c2cccs2)CC1 | – | inactive: -11.8% |
| CC(=O)c1cccc(NS(=O)(=O)c2csc(C(N)=O)c2)c1 | inconclusive: 10.3 µM [rising, partial curve, poor fit] | – |
| CC(=O)C(Cl)C(=O)Nc1ccccc1 (configuration not stated) | – | inactive: 0% |
| CC1CCc2c(sc3ncnc(N4CCOCC4)c23)C1 (configuration not stated) | active: 14.6 µM | – |
| CN(C)/C=C/C(=O)c1ccc(N2CCN(c3ncc(C(F)(F)F)cc3Cl)CC2)cc1 | inconclusive: 23.1 µM [cytotoxic, partial curve, poor fit] | – |
| CCOc1ccc(C(C)=O)cc1CN1C(=O)NC2(CCCCCCC2)C1=O | inconclusive: 3.26 µM [cytotoxic, full curve, poor fit] | – |
| COc1ccc(N(C)S(=O)(=O)c2cccc(C(=O)N3CCN(S(=O)(=O)c4ccc(C)cc4)CC3)c2)cc1 | inconclusive: 23.1 µM [cytotoxic, single point] | – |
| CCOC(=O)[C@]12CCCC=C1N(Cc1ccc(Cl)cc1Cl)C(=O)[C@H](CC(=O)NCC13CC4CC(CC(C4)C1)C3)C2 | – | inconclusive: -29.7% |
| Cc1ccc(CNC(=O)c2ccc3c(c2)c(C)c(C)n3Cc2ccc(Cl)cc2)o1 | – | inactive: -1.55% |
| CCNc1nc(NC(C)C)nc(N(C#N)C(C)C(=O)N(CC)CC)n1 (configuration not stated) | – | inactive: -7.17% |
| COc1cnc(-c2ccccc2)nc1OC | inconclusive: 18.4 µM [cytotoxic, single point] | – |
| Cc1noc(C(=O)N(C)c2ccccc2)c1Cl | inconclusive: 18.4 µM [rising, single point] | – |

Full records from above. Values in the order: Potency | activity change, negative = cytotoxicity
`CCCCN(C)CCCNC(=O)c1cn(C)c2ccc(S(=O)(=O)N(C)C3CCCCC3)cc2c1=O` is listed as – | inactive: 0%
`Cc1cc2oc(=O)cc(CSc3nc(N)cc(N)n3)c2cc1C` is listed as inconclusive: 14.6 µM [cytotoxic, partial curve] | –

(next part)

| SMILES | Potency | activity change, negative = cytotoxicity |
| --- | --- | --- |
| Cc1nn(S(=O)(=O)c2ccc(F)cc2)c(C)c1S(=O)(=O)N1CCCCCC1 | inconclusive: 32.6 µM [rising, partial curve, poor fit] | – |
| C[C@@H]1CCCCO[C@@H](CN(C)C(=O)Nc2ccccc2)[C@@H](C)CN([C@H](C)CO)C(=O)c2cc(N(C)C)ccc2O1 | – | inactive: 9.19% |
| CC(CNC(=O)COc1ccccc1)OC(=O)Nc1ccc(Cl)c(Cl)c1 (configuration not stated) | inconclusive: 29.1 µM [cytotoxic, single point] | – |
| CCNC(=O)C1(C)CCN(C(=O)c2cccc(OC(C)=O)c2C)C1 (configuration not stated) | – | inactive: 5.39% |
| C=CCN(CC=C)Cc1cc(=O)oc2cc(C)cc(C)c12 | inconclusive: 23.1 µM [cytotoxic, single point] | – |
| CCC(C)Sc1nnc(NC(=O)C2CCN(C(=O)c3ccco3)CC2)s1 (configuration not stated) | inconclusive: 13 µM [cytotoxic, partial curve] | – |
| N#CCOc1ccccc1/C=N/n1nnnc1N | inconclusive: 23.1 µM [rising, single point] | – |
| CNC(=O)C(=O)NCCN1CCN(S(=O)(=O)c2ccc3ccccc3c2)CC1 | – | inconclusive: 4.24% |
| Cc1ccc(C(=O)Nc2c(C(=O)Nc3ccc(C)c(C)c3)sc3nc(C)cc(C)c23)cc1 | inconclusive: 20.6 µM [cytotoxic, single point] | – |
| Cc1ccc(-n2ncc3c(NCc4cccnc4)ncnc32)c(C)c1 | inconclusive: 18.4 µM [cytotoxic, partial curve, poor fit] | – |
| COc1ccc(NC(=O)C(=O)NCC2CCCN2S(=O)(=O)c2cc(C)ccc2C)cc1 (configuration not stated) | active: 5.8 µM | – |
| Cc1ccc(S(=O)(=O)NC(C)(C)CN2CCc3ccccc3C2)cc1 | inconclusive: 9.2 µM [cytotoxic, partial curve] | – |
| O=C(c1ccc(CSc2nc3ccncc3[nH]2)cc1)N1CCN(c2cccc(Cl)c2)CC1 | – | inactive: -11.6% |
| CCc1cccc(C)c1NC(=O)CSc1nc2ccncc2[nH]1 | inconclusive: 29.1 µM [rising, single point] | – |
| O=C(NC(=S)NNC(=O)c1cc2ccccc2cc1O)c1ccco1 | inconclusive: 2.31 µM [cytotoxic, full curve] | – |
| O=C1Nc2cc(C(=O)N3CCOCC3)ccc2S/C1=C\c1ccccc1 | inconclusive: 3.66 µM [rising, partial curve, poor fit] | – |
| Cc1ccc(C(=O)N2CCN(c3ccc(NC(=O)COc4ccccc4C)cc3)CC2)cc1 | inconclusive: 29.1 µM [cytotoxic, partial curve, poor fit] | – |
| CCc1ccccc1NC(=O)c1cnc2n(c1=O)CCS2 | inconclusive: 5.8 µM [cytotoxic, partial curve] | – |
| CC1(C)CC(NS(=O)(=O)c2ccccc2)CC(C)(C)N1 | inconclusive: 20.6 µM [rising, partial curve] | – |
| C=CC[C@H](CC(=O)OC(C)(C)C)C(=O)OC[C@@H]1CCCN1C(=O)[C@@H](CC=C)CC(=O)N[C@H](CO)Cc1ccccc1 | – | inactive: 0% |
| Cc1nnc(SCC(=O)NC(=O)Nc2ccc3c(c2)OCCO3)n1N | – | inactive: -0.291% |
| O=C(Nc1ccc(Cl)cn1)C1CCCN1S(=O)(=O)c1ccc(Cl)cc1 (configuration not stated) | inconclusive: 23.1 µM [cytotoxic, single point] | – |
| COc1ccc(-c2cc(C(=O)NCc3cccnc3)no2)cc1OC | active: 20.6 µM | – |

| SMILES | Potency | activity change, negative = cytotoxicity |
| --- | --- | --- |
| CCN(CC)c1ccc(NC(=S)NC(=O)c2ccco2)cc1 | inconclusive: 29.1 µM [cytotoxic, single point] | – |
| O=C(NC(=S)N1CCN(C/C=C/c2ccccc2)CC1)c1ccc(Cl)nc1 | – | inactive: 0% |
| CCn1c(SCC(=O)NC2CCCCC2)nnc1-c1cc2cccc(OC)c2o1 | inconclusive: 18.4 µM [cytotoxic, single point] | – |
| CCOC(=O)c1ccc(N2C(=O)c3n[nH]c(-c4ccco4)c3C2c2ccccc2OC)cc1 (configuration not stated) | inconclusive: 29.1 µM [cytotoxic, single point] | – |
| Cn1c(=O)c2c(nc(N3CCCCCC3)n2Cc2cccc3ccccc23)n(C)c1=O | inconclusive: 29.1 µM [cytotoxic, single point] | – |
| Cc1cnc(C(=O)N2CCCC(C(=O)c3ccc(C(C)(C)C)cc3)C2)cn1 (configuration not stated) | – | inactive: -6.94% |
| O=C(CSc1nc(-c2ccccc2)cs1)NCc1ccco1 | inconclusive: 20.6 µM [cytotoxic, partial curve] | – |
| CCN1C(=O)/C(=C/c2cn(C)nc2C)SC1=S | inconclusive: 18.4 µM [cytotoxic, single point] | – |
| COC(=O)c1c(NC(=O)/C=C/C(=O)O)sc(C)c1-c1ccc(C(C)C)cc1 | inconclusive: 29.1 µM [cytotoxic, single point] | – |
| COc1ccc(-c2cc(NC=O)c3ncc(-c4ccc(OC)c(OC)c4)n3c2)c(OC)c1 | active: 1.16 µM | – |
| CCN1/C(=C/C=C/c2oc3ccc(-c4ccccc4)cc3[n+]2CC)Oc2ccc(-c3ccccc3)cc21 | active: 14.6 µM | – |
| Cc1nnc(SCCOC(N)=O)n1C | inconclusive: 0.231 µM [rising, full curve] | – |
| Cn1ccnc1SCC(=O)Nc1cccc(C(F)(F)F)c1 | – | inactive: 3.42% |
| COc1ccc(N2C(=O)CSC23CCC(C(C)(C)C)CC3)cc1 (configuration not stated) | inconclusive: 29.1 µM [cytotoxic, single point] | – |
| N/C(=N\OC(=O)C1CCCCC1)c1cccnc1 | inconclusive: 35.5 µM [rising, single point] | – |
| CSCCC(NC(=O)c1ccccc1Cl)C(=O)Nc1cccc(S(=O)(=O)N2CCCC2)c1 (configuration not stated) | inconclusive: 18.4 µM [cytotoxic, single point] | – |
| O=S(=O)(c1ccc(Cl)c(Cl)c1)N1CCc2nc3ccccc3n2CC1 | inconclusive: 8.2 µM [cytotoxic, partial curve] | – |
| O=C(COc1ccccc1Cl)c1ccc2c(c1)CCCC2 | inconclusive: 23.1 µM [cytotoxic, single point] | – |
| Cc1ccc(C(=O)Nc2ccc3c(c2)OCO3)cc1 | inconclusive: 25.9 µM [cytotoxic, single point] | – |
| CC(C)(C)c1ccc(/C=C/C(=O)NC2=NCCS2)cc1 | inconclusive: 9.2 µM [cytotoxic, partial curve] | – |
| CN(CC(=O)Nc1ccccc1C(=O)N1CCCC1)S(=O)(=O)c1ccc(Cl)cc1 | active: 7.31 µM | – |

Shown in CSV form: part of the list above.
SMILES,Potency,"activity change, negative = cytotoxicity"
CN(C)/C=C/C(=O)c1ccc(N2CCN(c3ncc(C(F)(F)F)cc3Cl)CC2)cc1,"inconclusive: 23.1 µM [cytotoxic, partial curve, poor fit]",–
Cc1nn(S(=O)(=O)c2ccc(F)cc2)c(C)c1S(=O)(=O)N1CCCCCC1,"inconclusive: 32.6 µM [rising, partial curve, poor fit]",–
C[C@@H]1CCCCO[C@@H](CN(C)C(=O)Nc2ccccc2)[C@@H](C)CN([C@H](C)CO)C(=O)c2cc(N(C)C)ccc2O1,–,inactive: 9.19%
